From article PMC5655141, “Allosteric fine-tuning of the conformational equilibrium poises the chaperone BiP for post-translational regulation” (eLife, 2017) come the findings set out here.

The chains behind the UniProt entries cited, without tags or fusion partners. Where a name states a change or a piece, a line headed by the entry shows the natural chain unless it says otherwise. A line that says so, or that is headed by a name, gives the form on record, which may keep a tag or linker.
BiP* (full-length ATPase deficient T229G BiP construct, hamster BiP(1-641)) (G3I8R9, form named): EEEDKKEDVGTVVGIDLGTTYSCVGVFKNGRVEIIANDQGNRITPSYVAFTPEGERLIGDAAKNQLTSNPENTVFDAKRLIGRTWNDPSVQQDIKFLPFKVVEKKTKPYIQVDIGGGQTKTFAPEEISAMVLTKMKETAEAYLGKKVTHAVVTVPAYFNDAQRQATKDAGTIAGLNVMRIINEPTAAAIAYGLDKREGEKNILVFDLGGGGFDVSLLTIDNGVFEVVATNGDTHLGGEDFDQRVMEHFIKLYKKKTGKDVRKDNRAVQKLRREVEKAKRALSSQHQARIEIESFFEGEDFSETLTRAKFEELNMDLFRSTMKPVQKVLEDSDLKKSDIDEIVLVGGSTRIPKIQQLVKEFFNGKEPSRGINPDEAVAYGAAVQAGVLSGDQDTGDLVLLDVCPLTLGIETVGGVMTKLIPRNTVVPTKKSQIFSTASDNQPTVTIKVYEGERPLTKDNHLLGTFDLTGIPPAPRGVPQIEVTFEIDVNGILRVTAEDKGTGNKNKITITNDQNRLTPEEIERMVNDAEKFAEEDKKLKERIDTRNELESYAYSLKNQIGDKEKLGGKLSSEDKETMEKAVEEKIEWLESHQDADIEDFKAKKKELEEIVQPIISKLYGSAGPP

No constants are given. Whether binding was seen depends on the method and setting. Some entries that bind do so weakly or less than the wild type.

For test [1], the target named is BiP* (full-length ATPase deficient T229G BiP construct, hamster BiP(1-641)) (hamster) (UniProt G3I8R9). As to the kind of experiment: methyl-TROSY NMR (comparison of spectra); ADP-bound BiP* with P2 peptide; 2D 1H-13C SOFAST-HMQC, 25°C, 20 mM HEPES, 100 mM KCl, 5 or 40 mM MgCl2, pH 7.6, 5 or 40 mM ADP; both purified.
For test [2] the target is unchanged. As to the kind of experiment: methyl-TROSY NMR (comparison of spectra); ATP-bound BiP* with and without P2 peptide; 2D 1H-13C SOFAST-HMQC, 25°C, 20 mM HEPES, 100 mM KCl, 5 or 40 mM MgCl2, pH 7.6, 5 or 40 mM ATP; both purified.

Consider HTFPAVL [P2 (model substrate peptide HTFPAVL)], for which the binding result in test [1] and in test [2] was “binds” throughout.
